{"source": "patent US20250154263A1", "about": "(FEINSTEIN INSTITUTES FOR MEDICAL RESEARCH, published 2025)", "binders": {"B1": {"name": "mAb 243.6 (antibody, mouse IgG1, V domains shown)", "VH": "EVQLQQSGTVLVRSGASVKLSCTASGFNIKEYYIHWVKQRPEQGLEWIAWIDLENGESEYAPKFQGKATLTADTSSNTAYLQLSGLTSEDTAVYYCNAFHGNYAHNYAIDYWGQGTSVTVSQ", "VL": "DIVMSQSPSSLAVSAGEKVTMTCKSSQSLLNSRTRKNYLAWYQQKPGQSPKLLIYWASTRKSGVPDRFTGSGSGTDFTLTISSVQAEDLAVYYCKQSYNLRTFGGGTKLEIK", "notes": "also called 243.6.1"}, "B2": {"name": "mAb 17.2 (antibody, mouse IgG1, V domains shown)", "VH": "EVQLQQSGAELVRSGASVKLSCTTSGFNIKDFYIHWVRQRPEQGLEWIGWIDPKNDDTEYAPRFQGKATVTADTSSNTAYLHLSGLTSEDTAVYYCNGRYPTMDFWGQGTSVT", "VL": "EIVLTQSPITMTTSPGEKITITCSASSSISSHYLHWYQQKPGFSPKLLIYRASNLASGVPTRFSGSGSGTSYSLTIDTMEAEDVATYFCQQGSSLPLTFGAGTKLELK", "notes": "also called 17.2.3; hybridoma #17"}}, "key": {"[1]": {"molecular_target": "T1, recombinant CLECL1 (rCLECL1) protein (human) (UniProt Q8IZS7)", "T1 sequence": "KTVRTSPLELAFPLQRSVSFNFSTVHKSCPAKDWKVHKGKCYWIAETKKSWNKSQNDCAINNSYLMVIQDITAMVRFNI", "assay": "hybridoma screening, cross reactivities (FIG. 10)"}, "[2]": {"molecular_target": "T1, recombinant CLECL1 (rCLECL1) protein (human)", "assay": "ELISA on rCLECL1 protein (FIG. 8D)"}}, "note": "Results are given in words; binding and its absence hold for the method and conditions named. Some entries that bind do so weakly or less than the wild type.", "data": [{"binder": "B1", "values": [{"measurement": "binding", "setting": "[1]", "value": "binds"}, {"measurement": "binding", "setting": "[2]", "value": "binds"}]}, {"binder": "B2", "values": [{"measurement": "binding", "setting": "[1]", "value": "binds"}, {"measurement": "binding", "setting": "[2]", "value": "binds"}]}]}
